According to patent US20080096237A1:
No constants are given. Whether binding was seen depends on the method and setting. Binding seen in cells or lysates may run through a third protein. Some results given as binding are weak or reduced against the parent protein; the word gives no strength. Tags and fused reporters may be left off the sequences shown.

The chains behind the UniProt entries cited, without tags or fusion partners.
UniProt P31750: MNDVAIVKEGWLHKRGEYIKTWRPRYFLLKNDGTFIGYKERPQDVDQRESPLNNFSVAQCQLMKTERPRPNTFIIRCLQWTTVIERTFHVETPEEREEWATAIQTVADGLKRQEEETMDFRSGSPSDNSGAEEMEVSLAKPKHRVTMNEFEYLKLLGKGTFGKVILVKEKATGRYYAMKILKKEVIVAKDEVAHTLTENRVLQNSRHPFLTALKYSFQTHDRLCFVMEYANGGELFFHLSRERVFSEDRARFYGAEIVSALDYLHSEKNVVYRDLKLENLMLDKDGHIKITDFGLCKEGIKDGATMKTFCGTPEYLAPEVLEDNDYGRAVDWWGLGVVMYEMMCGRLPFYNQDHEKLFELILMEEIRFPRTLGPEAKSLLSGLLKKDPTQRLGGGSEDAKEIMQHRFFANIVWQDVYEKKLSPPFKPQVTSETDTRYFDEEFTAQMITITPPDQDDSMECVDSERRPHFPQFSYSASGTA

Target: Akt (in mouse heart extracts) (mouse) (UniProt P31750)
Test: co-immunoprecipitation with the hemagglutinin antibody

B1: transgenic H11 kinase carrying a hemagglutinin tag (cardiac-specific transgenic mouse) (enzyme)
chain: MADGQMPFSCHYPSRLRRDPFRDSPLSSRLLDDGFGMDPFPDDLTASWPDWALPRLSSAWPGTLRSGMVPRGPTATARFGVPAEGRTPPPFPGEPWKVCVNVHSFKPEELMVKTKDGYVEVSGKHEEKQQEGGIVSKNFTKKIQLPAEVDPVTVFASLSPEGLLIIEAPQVPPYSTFGESSFNNELPQDSQEVTCT
- binding: binds
